Results are given in words; binding and its absence hold for the method and conditions named.
How the values were obtained:
Test in all cases: two-hybrid; AD fusions (pGADT7) in S. cerevisiae Y187 mated with BD fusions (pGBKT7) in Y2HGold; diploids spotted at 5 x 10^2, 5 x 10^3 and 5 x 10^4 cells on double-dropout (SDM/-Leu/-Trp/X-α-Gal/AbA) and quadruple-dropout (SDM/-Leu/-Trp/-Ade/-His/X-α-Gal/AbA) plates, 3 days at 30 °C
[1] = target: T1, Phr1 of Beauveria bassiana (Beauveria bassiana) (UniProt J4KQS2)
T1 sequence: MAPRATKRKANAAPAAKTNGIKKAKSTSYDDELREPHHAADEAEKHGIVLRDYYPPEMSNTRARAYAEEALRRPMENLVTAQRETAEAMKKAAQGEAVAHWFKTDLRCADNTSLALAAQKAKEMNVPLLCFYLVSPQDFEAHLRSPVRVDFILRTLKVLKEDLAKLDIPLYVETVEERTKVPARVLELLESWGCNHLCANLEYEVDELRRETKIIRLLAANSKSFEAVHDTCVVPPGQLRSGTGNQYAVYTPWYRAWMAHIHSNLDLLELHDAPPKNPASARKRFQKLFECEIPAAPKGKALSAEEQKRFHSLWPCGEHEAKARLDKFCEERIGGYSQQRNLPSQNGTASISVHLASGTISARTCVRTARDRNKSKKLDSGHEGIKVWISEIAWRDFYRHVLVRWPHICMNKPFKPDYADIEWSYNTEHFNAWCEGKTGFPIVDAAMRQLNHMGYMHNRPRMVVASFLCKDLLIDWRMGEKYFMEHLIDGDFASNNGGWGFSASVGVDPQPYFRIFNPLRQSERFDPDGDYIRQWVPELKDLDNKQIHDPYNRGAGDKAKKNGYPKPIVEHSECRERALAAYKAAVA

[2] = target: T2, Rad10 of Beauveria bassiana (Beauveria bassiana) (UniProt J4UQI9)
T2 sequence: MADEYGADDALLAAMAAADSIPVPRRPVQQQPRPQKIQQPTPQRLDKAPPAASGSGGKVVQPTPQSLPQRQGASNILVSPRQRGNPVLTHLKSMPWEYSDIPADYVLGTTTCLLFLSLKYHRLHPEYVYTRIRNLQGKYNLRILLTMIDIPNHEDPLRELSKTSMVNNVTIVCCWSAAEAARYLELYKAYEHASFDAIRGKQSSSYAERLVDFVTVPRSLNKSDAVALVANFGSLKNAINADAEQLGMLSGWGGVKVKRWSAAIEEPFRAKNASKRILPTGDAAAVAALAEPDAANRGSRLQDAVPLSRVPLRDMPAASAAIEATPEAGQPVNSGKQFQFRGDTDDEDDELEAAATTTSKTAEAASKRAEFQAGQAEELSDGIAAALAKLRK

[3] = target: T3, Rad6 of Beauveria bassiana (Beauveria bassiana) (UniProt J4KQN3)
T3 sequence: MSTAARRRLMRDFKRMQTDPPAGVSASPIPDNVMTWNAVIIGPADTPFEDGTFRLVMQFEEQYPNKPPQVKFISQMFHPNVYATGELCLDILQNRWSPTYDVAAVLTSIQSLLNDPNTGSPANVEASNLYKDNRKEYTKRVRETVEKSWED

[4] = target: T4, Rad18 of Beauveria bassiana (Beauveria bassiana) (UniProt J5JS29)
T4 sequence: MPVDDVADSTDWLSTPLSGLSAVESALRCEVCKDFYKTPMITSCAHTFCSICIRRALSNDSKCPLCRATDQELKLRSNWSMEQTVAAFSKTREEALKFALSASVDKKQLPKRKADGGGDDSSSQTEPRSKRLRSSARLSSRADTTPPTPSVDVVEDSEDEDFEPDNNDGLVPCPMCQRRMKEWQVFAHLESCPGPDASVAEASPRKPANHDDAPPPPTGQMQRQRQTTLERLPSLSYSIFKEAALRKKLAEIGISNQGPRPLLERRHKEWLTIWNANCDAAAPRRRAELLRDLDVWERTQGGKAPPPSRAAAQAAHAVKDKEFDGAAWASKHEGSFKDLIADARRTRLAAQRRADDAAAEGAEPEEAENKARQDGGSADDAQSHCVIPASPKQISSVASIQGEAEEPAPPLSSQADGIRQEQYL

[5] = target: T5, WC2 of Beauveria bassiana (Beauveria bassiana) (UniProt J5JYA0)
T5 sequence: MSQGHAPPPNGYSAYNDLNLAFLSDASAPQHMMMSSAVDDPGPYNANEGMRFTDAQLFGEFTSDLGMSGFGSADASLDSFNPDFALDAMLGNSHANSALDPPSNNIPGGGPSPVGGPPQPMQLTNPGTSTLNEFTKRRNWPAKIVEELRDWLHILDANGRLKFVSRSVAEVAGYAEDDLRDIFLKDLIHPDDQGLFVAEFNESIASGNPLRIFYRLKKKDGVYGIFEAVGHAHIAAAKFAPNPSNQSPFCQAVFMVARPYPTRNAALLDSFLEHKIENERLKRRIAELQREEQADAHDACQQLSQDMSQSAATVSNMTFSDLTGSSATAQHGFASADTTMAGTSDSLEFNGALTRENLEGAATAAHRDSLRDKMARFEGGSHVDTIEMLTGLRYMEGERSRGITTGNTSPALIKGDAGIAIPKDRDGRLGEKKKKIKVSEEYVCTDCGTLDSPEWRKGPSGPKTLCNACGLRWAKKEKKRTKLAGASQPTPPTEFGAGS

binding [1] | binding [2] | binding [3] | binding [4] | binding [5] | Substance
no binding | no binding | no binding | no binding | no binding | Rad16A of Beauveria bassiana
no binding | no binding | no binding | no binding | no binding | Rad16B of Beauveria bassiana
no binding | no binding | no binding | no binding | no binding | Rad5 ortholog of Beauveria bassiana

— PMC11205155
